Source: paper PMC8096781

Chains of the proteins cited; added tags and fusions are not shown.
UniProt P14618: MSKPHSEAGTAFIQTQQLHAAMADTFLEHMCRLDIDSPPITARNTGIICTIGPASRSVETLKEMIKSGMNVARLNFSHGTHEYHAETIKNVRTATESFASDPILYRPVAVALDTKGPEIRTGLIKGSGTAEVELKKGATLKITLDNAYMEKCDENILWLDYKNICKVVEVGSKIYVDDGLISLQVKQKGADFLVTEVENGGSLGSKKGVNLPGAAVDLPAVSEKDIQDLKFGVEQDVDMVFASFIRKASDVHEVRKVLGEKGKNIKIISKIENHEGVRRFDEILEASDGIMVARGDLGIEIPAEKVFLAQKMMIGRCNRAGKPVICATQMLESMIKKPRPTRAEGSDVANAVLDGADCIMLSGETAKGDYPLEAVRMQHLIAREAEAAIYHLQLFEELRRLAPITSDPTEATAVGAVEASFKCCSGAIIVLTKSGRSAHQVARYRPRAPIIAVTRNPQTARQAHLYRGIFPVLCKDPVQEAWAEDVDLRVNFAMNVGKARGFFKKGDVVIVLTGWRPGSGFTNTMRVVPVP

Target: T1, Flag-FOXM1D (overexpressed in HeLa cells) (UniProt Q08050)
T1 sequence: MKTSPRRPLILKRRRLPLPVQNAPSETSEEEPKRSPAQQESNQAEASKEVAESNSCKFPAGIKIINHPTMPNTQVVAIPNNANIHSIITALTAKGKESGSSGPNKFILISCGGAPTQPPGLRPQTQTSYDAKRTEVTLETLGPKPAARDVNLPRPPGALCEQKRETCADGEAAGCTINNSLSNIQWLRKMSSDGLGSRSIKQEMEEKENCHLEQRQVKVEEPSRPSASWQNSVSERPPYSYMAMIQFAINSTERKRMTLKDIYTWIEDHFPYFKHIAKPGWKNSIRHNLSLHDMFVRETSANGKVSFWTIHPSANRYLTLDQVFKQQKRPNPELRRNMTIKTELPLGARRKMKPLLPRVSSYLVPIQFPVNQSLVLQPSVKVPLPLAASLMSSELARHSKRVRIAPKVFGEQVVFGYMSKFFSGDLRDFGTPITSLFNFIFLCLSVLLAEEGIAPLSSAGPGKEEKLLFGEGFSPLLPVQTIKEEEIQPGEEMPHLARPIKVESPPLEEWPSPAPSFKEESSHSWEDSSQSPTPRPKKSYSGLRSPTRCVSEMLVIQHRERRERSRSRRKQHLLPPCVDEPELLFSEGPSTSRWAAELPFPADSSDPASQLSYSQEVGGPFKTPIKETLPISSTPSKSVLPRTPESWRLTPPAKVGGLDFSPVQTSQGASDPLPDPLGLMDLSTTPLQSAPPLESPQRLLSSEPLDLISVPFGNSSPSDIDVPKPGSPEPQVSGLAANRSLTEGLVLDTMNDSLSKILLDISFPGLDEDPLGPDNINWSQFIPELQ
Assay: affinity purification with mass spectrometry; Co-IP with rabbit anti-Flag antibody or rabbit control IgG isotype antibody from HeLa cells overexpressing Flag-FOXM1D, then LC-MS/MS

Substance: endogenous PKM2 (HeLa cells) (from UniProt P14618 1-531) (enzyme)
- binding: binds

These are yes or no findings as the source states them, for the method shown. In cells and extracts the contact can be indirect. These calls come from enrichment with a bait or labelling near it, and not all partners need be listed. Where a sequence is shown, tags or fusion partners need not be part of it.
